# Data as given in the supplement of paper PMC12819154, “High-throughput peptide-centric local stability assay extends protein–ligand identification to membrane proteins, tissues and bacteria” (Nature Structural & Molecular Biology, 2025).
# Amino acid sequences for entries named in this document (tags omitted). A change or cut given only in a name is not applied to a line headed by its entry.
# UniProt Q60855: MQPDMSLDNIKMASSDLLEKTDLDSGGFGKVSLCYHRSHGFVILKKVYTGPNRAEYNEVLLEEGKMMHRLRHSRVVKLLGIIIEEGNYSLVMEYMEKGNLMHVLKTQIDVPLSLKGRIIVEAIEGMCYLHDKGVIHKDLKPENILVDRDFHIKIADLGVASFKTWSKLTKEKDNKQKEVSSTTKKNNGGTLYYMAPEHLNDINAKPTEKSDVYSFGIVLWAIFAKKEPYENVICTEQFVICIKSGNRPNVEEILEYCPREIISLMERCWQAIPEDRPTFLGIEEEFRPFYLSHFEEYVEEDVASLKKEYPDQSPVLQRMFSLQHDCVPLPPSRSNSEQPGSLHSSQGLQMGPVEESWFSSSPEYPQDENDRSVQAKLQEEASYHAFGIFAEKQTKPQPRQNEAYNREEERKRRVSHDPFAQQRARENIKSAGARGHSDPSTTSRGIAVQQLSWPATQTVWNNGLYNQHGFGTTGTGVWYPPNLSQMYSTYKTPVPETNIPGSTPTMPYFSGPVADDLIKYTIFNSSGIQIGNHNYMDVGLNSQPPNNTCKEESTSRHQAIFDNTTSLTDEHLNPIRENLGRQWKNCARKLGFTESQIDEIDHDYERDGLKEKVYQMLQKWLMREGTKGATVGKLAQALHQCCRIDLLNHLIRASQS
# UniProt Q62417: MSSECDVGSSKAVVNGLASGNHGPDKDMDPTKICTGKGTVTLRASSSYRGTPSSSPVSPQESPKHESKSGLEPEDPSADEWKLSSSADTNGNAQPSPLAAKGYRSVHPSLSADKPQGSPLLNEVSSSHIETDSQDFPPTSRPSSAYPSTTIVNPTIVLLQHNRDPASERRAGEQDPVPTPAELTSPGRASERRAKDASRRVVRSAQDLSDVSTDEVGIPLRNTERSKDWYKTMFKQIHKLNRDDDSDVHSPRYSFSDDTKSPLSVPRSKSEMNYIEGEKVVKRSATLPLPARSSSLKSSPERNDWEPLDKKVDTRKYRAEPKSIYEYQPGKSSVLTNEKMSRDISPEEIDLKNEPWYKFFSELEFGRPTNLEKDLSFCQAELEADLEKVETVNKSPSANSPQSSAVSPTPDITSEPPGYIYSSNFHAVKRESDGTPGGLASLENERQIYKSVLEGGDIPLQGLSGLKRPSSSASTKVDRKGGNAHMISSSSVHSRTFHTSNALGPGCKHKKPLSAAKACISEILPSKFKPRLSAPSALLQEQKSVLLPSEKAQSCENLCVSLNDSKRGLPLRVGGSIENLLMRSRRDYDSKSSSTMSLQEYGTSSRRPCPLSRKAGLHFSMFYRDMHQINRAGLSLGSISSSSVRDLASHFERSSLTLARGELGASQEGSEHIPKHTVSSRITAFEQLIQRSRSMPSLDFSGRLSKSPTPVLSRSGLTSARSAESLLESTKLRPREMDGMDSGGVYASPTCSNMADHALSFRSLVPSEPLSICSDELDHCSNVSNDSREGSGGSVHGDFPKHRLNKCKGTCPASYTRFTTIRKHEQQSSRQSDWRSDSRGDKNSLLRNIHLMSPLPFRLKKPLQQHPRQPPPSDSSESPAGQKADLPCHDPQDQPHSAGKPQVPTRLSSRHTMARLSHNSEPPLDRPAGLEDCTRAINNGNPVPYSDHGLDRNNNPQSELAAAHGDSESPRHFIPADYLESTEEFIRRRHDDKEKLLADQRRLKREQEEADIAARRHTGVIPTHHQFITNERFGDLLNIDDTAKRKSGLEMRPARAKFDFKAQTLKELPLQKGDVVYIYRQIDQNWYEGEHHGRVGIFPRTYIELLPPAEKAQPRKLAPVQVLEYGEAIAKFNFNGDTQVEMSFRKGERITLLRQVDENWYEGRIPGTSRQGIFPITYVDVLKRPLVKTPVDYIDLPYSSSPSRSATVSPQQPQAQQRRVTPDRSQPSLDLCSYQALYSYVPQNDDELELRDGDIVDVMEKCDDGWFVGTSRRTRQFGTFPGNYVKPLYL
# UniProt Q60870: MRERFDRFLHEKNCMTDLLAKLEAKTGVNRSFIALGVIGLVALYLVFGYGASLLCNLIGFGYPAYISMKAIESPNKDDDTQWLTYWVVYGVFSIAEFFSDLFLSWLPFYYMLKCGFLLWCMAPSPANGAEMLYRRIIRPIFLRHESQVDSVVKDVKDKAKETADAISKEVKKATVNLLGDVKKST
# UniProt Q69ZS7, whole entry: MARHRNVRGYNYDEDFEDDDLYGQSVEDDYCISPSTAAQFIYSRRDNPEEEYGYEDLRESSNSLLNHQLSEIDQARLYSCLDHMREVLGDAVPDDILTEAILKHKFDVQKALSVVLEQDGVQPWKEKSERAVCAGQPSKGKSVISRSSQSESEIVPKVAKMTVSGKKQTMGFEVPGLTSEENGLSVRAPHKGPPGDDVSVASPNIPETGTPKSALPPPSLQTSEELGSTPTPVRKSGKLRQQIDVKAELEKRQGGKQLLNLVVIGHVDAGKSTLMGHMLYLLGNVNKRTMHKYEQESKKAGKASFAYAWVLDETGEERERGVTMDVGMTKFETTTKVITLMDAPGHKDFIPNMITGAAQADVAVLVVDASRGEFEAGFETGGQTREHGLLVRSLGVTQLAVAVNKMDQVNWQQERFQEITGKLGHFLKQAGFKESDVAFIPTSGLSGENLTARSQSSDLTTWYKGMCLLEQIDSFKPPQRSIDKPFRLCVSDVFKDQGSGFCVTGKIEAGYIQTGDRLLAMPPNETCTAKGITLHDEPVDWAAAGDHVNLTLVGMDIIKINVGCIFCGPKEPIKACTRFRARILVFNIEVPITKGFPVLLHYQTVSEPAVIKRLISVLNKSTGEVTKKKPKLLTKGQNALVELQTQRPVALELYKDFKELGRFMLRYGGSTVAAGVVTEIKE
# UniProt Q61526, whole entry: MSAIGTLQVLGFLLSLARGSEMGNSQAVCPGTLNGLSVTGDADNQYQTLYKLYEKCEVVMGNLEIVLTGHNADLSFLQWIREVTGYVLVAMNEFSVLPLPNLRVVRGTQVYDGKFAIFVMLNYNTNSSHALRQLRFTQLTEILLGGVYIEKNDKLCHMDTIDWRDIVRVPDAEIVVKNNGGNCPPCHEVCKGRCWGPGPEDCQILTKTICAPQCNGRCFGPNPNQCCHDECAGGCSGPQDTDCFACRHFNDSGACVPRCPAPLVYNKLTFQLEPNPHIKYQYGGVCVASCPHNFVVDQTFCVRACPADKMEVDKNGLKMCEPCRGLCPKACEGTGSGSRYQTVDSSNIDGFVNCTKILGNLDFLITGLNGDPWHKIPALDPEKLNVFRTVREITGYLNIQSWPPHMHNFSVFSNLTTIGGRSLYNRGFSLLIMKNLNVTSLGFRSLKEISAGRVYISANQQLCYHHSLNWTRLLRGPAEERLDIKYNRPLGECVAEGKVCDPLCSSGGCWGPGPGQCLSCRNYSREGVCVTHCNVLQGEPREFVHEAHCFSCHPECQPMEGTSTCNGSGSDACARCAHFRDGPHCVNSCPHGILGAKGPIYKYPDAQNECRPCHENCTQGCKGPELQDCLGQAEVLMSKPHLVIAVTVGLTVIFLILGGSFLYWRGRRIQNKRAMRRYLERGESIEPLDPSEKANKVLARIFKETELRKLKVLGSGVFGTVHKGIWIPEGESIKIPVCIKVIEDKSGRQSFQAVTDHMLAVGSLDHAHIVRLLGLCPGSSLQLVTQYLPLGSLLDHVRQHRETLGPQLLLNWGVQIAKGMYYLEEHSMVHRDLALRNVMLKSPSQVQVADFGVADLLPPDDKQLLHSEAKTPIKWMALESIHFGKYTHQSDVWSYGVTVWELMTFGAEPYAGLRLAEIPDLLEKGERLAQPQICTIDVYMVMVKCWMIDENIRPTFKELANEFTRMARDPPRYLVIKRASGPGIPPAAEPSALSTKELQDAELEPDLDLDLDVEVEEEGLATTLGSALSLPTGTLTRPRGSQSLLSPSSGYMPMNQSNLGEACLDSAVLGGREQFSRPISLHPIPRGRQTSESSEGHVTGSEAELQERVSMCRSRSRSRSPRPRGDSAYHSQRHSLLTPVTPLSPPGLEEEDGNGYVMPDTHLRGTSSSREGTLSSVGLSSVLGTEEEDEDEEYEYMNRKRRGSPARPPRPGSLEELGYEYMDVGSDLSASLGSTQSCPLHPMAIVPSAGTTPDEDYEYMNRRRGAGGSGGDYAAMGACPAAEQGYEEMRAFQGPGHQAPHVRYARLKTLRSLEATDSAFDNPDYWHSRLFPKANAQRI
# UniProt Q64442: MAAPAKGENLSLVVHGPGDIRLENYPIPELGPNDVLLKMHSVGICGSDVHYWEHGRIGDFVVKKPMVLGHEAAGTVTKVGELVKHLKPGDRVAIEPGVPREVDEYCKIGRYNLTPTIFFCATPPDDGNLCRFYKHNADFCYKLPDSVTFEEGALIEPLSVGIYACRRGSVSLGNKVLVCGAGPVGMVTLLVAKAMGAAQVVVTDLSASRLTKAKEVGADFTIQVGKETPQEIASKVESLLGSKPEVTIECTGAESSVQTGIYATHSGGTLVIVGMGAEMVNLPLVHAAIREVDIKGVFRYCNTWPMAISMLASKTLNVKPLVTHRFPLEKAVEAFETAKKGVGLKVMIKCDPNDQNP
# UniProt Q61543: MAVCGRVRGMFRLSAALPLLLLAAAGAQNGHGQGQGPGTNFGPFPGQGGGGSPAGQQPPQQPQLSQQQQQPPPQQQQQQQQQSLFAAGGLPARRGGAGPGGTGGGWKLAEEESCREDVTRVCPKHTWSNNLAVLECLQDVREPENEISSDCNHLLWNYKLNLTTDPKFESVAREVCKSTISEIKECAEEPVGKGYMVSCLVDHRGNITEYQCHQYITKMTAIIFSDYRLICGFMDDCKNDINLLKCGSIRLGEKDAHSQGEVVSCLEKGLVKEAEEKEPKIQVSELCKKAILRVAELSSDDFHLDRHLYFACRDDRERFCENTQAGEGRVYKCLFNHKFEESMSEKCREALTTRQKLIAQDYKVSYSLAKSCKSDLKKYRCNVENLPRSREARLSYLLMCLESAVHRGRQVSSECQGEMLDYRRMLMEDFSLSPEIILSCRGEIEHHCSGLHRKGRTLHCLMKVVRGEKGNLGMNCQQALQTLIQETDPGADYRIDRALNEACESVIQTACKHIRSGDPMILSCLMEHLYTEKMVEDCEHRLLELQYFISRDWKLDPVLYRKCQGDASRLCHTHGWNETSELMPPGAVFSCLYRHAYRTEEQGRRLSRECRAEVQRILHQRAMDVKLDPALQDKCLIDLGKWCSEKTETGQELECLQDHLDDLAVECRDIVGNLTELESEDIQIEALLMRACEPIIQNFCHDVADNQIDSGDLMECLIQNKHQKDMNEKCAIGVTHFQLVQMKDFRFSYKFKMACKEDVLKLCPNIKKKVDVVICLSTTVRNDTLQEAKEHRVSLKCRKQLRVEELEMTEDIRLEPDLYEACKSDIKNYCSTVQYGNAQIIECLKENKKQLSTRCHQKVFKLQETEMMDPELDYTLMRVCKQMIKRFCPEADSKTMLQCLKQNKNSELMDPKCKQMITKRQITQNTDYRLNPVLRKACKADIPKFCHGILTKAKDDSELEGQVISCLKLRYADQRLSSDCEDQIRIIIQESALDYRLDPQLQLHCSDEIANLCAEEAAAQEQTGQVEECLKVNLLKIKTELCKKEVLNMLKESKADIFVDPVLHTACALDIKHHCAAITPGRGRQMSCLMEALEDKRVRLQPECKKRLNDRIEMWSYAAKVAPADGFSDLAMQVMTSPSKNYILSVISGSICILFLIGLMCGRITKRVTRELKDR
# UniProt Q5UAK0: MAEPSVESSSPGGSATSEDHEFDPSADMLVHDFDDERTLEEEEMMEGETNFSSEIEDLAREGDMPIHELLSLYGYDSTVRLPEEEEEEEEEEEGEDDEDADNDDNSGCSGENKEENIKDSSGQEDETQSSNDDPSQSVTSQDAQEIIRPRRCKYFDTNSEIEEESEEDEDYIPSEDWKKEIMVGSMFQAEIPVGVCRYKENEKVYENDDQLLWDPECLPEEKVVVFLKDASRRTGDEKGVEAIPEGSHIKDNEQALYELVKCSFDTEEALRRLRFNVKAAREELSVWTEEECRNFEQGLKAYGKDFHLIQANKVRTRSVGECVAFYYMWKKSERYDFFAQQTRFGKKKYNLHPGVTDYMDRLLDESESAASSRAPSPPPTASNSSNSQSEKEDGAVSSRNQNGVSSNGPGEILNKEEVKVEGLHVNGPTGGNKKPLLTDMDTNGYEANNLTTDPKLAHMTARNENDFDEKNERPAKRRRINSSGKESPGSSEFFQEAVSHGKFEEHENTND
# UniProt Q61908: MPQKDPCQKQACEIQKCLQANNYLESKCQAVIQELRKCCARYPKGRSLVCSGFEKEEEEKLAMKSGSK
# UniProt Q60932, whole entry: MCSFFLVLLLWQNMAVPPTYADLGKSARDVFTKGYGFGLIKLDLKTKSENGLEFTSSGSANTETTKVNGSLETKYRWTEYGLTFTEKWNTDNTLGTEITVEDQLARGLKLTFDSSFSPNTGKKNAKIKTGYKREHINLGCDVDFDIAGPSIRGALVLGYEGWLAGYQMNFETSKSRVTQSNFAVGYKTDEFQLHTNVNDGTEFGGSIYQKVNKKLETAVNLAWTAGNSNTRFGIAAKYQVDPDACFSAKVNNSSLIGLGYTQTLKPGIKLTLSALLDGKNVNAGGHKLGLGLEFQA
# This is one part of the list. Most values lie at the level of the controls, where differences are scatter.
# Compound: CN[C@@H]1C[C@H]2O[C@@](C)([C@@H]1OC)n1c3ccccc3c3c4c(c5c6ccccc6n2c5c31)C(=O)NC4 [staurosporine]
# Assay: log2 fold change of pooled soluble protein (PISA), ligand vs vehicle (log2 ratio); higher = more thermally stabilized
# Conditions: ligand concentration: 20 uM; assay format: PISA pool 52.9/55.5/58.6 C
row,Target,log2 fold change of pooled soluble protein
1,UniProt Q60855,0.0735
2,UniProt Q69ZZ6,-0.0759
3,UniProt Q61581,-0.0595
4,UniProt Q6IRU5,0.152
5,UniProt Q64010,-0.00697
6,UniProt Q60865,-0.0306
7,UniProt Q60649,-0.165
8,UniProt Q62417,-0.0542
9,UniProt Q60870,0.116
10,UniProt Q62448,-0.0419
11,UniProt Q61107,-0.153
12,UniProt Q5SW19,-0.00849
13,UniProt Q5SWU9,-0.0684
14,UniProt Q60864,-0.074
15,UniProt Q69ZS7,0.248
16,UniProt Q60692,-0.053
17,UniProt Q6NSQ7,0.123
18,UniProt Q61526,-0.0778

# As entered above:
# Value for UniProt Q6NSQ7 under log2 fold change of pooled soluble protein: 0.123
# Value for UniProt Q6IRU5 under log2 fold change of pooled soluble protein: 0.152

# Carrying on:

row,Target,log2 fold change of pooled soluble protein
1,UniProt Q64442,0.0804
2,UniProt Q61081,-0.0408
3,UniProt Q62186,-0.289
4,UniProt Q64374,-0.0472
5,UniProt Q61543,0.0683
6,UniProt Q6GQT9,-0.125
7,UniProt Q62463,-0.031
8,UniProt Q61179,-0.0813
9,UniProt Q6A4J8,-0.0683
10,UniProt Q5UAK0,-0.00995
11,UniProt Q5SUR0,0.0312
12,UniProt Q64FW2,0.0266
13,UniProt Q61908,-0.142
14,UniProt Q60931,-0.0674
15,UniProt Q60932,-0.167
16,UniProt Q61733,0.0765
17,UniProt Q60575,-0.246
18,UniProt Q61704,-0.397
